Record: PubChem BioAssay AID504784 (Drosophila RNAi Screening Center, 2011)

Screen: 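Genome-wide knock-down for genes giving too much or too little stored lipid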 (primary screen)
Cells: Drosophila Kc167 embryonic cells
Knock-down reagent: long dsRNA against Drosophila genes, about 250 ng dsRNA per well
Timing: 4 days
Treatment: cells fed 400 µM oleic acid bound to BSA
Read-out: 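Cells imaged and segmented; ratio of lipid droplet area to nuclear area, log-transformed, then normalised as a B-score over the screen; higher means more stored lipid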
Scale: droplet/nuclear area B-score: higher = more stored lipid (overstorage)
The screen tested about 17,000 reagents; shown is a random part of those that have a named target and a result. 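Each column is one replicate's B-score; the combined score over replicates was not deposited, so single values may mislead.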 Reagents against one gene are numbered here. A plus sign joins genes that one reagent is predicted to hit.

no.	Target gene	reagent	droplet/nuclear area B-score, replicate 1	droplet/nuclear area B-score, replicate 2	droplet/nuclear area B-score, replicate 3
1	CG31787	1	-0.107	0.209	
2	HINT1	1	-1.27	1.28	
3	pea	1	2.01	-0.0302	
4	CG17593	1	-0.183	0.392	
5	pll	1	-0.805	0.688	
6	Npc2h	1	-0.817	0.224	
7	CG2614	1	0.554	1.94	
8	Klp59D	1	-0.5	-0.988	
9	CG42557 + CG42558	1	0.317	-1.93	
10	CG42557 + CG42558	2	-1.11	-0.334	
11	CG6044	1	0.666	-0.875	
12	CG7692	1	-0.317	0.313	
13	CG13083	1	1.28	0.601	
14	His2Av	1	0.715		
15	cry	1	-0.00145	1.73	
16	His4r	1	3.36	2.37	
17	PolA2	1	-0.324	-1.7	
18	Tim10 + CG42497	1	0.854	1.5	
19	ana2	1	1.51	2.23	
20	Mrp5	1	-0.717	-0.291	
21	Mrp5	2	1.2	-0.59	
22	CG13309	1	0.0966	-0.0827	
23	Fic	1	-0.673	-0.597	
24	CG9777	1	-0.651	1.15	
25	spen	1	-0.0218	-2.1	
26	Sf3b6	1	-0.419	-1.35	
27	CG31633	1	-0.0573	0.117	
28	CG3662	1	0.274	0.0212	
29	Tip60	1	1.48		
30	moody	1	-1.25	-0.0327	
31	Send2	1	0.0997	0.353	
32	mthl4	1	-1.29	0.947	
33	Jhbp4	1	0.0645	1.16	
34	l(2)gd1	1	-0.406	-0.285	
35	nmo	1	0.565	0.585	
36	nmo	2	1.04	0.335	
37	Camta	1	2.15	0.33	
38	Camta	2	1.21	-0.537	2.91
39	Camta	3	0.00606	0.636	
40	Camta	4	0.0319	-1.78	
41	Camta	5	-0.951	-0.304	
42	wech	1	0.591	-0.0195	
43	Arl6	1	0.159	-0.693	
44	apolpp	1	0.102	4.67	
45	TotC	1	-0.818	0.168	
46	CG13344	1	-0.0253	0.676	
47	CG7943	1	0.261	1.02	
48	mRpS34	1	2.64	2.06	
49	Rat1	1	-1.32	-0.586	
50	RpS6	1	4.45	2.65	0.726
51	SdhD	1	-0.721	0.701	
52	CG15631	1	-3.47	-1.71	
53	CG3107	1	-1.15	-1.2	
54	Cyp6a17	1	-0.651	-0.466	
55	Pdfr	1	2.04	0.0347	
56	CG11883	1	0.0389	3.99	
57	CG17778	1	0.048	2.58	
58	Obp56i	1	0.758	0.776	
59	CG17233	1	-1.17	0.299	-0.00987
60	Arp53D	1	-0.897	0.295	
61	Gr59b	1	0.0154	0.683	
62	CG6418	1	-0.437	-0.465	
63	CG32243	1	-0.449	0.92	
64	CG13226	1	-0.61	0.193	
65	CG33203	1	1.79	-0.0226	
66	CG33203	2	0.336	-0.00593	
67	CG33203	3	-0.364	-1.15	1.75
68	C15	1	0.763	1.46	
69	C15	2	0.875	-1.51	
70	Osi1	1	0.0145	0.933	
71	CG7556	1	2.13	2.54	
72	betaNACtes3	1	-0.0275	-0.603	
73	bbc	1	0.623	-1.25	-2.77
74	bbc	2	-0.238	-1.8	
75	CG31800	1	-1.02	-1.12	
76	CG8927	1	-0.107	2.32	
77	Spn43Ad	1	-0.461	-0.00213	
78	Mettl2	1	-0.117		
79	CG15005	1	1.16	-0.0583	
80	CG33310	1	0.0398	1.59	
81	Teh4	1	0.368	0.755	
82	CG7202	1	0.184	-0.81	
83	CG34376	1	0.365	0.984	
84	CG34376	2	0.238	1.95	
85	CG34376	3	-0.892	-0.00698	
86	RabX6	1	0.837	-2.22	
87	CG7137	1		0.189	
88	Tpc2	1	-1.07	0.462	
89	IleRS-m	1	-1.02	-0.135	
90	CG18171	1	-0.904	0.0278	
91	Atox1	1	-1.19	-0.331	
92	CG13255	1	0.374	0.21	
93	M6	1	-0.921	-0.591	
94	Naa15-16	1	-1.07	0.298	-1.36
95	Naa15-16	2	0.926	0.588	
96	snk	1	-0.0325	-0.14	
97	Cpr49Ae	1	2.26	0.315	
98	Bili	1	-0.692	-0.297	
99	Brms1	1	-2.6	-2.99	-1.39
100	ssp5	1		0.089	
101	CG34354	1	2.52	-0.0539	
102	CG34354	2	-1.78	-0.659	
103	CG34354	3	0.745	-0.227	
104	CG34354	4	0.876	-2.27	
105	CG8026	1	-1.36	-0.125	-2.14
106	CG8026	2	0.341	-0.471	

Copied from the listing for reference:
no.	Target gene	reagent	droplet/nuclear area B-score, replicate 1	droplet/nuclear area B-score, replicate 2	droplet/nuclear area B-score, replicate 3
49	Rat1	1	-1.32	-0.586	
50	RpS6	1	4.45	2.65	0.726
51	SdhD	1	-0.721	0.701	
52	CG15631	1	-3.47	-1.71	
53	CG3107	1	-1.15	-1.2	
54	Cyp6a17	1	-0.651	-0.466	
55	Pdfr	1	2.04	0.0347	
56	CG11883	1	0.0389	3.99	
57	CG17778	1	0.048	2.58	
58	Obp56i	1	0.758	0.776	
59	CG17233	1	-1.17	0.299	-0.00987
60	Arp53D	1	-0.897	0.295	
61	Gr59b	1	0.0154	0.683	
